The AC50 is the concentration giving half of the maximal activity seen. A high value points to weaker potency.

From PubChem BioAssay AID2685 (National Center for Advancing Translational Sciences (NCATS), 2010) come the findings set out here.

The other results are listed elsewhere or left out. Shown are side measurements of this screen, not its main read-out; they come without a call. Compounds called inactive in the main read-out are mostly missing here. The note in brackets gives the kind of curve behind each potency; many fits are weak.

The nature of this assay: qHTS Assay for Lipid Storage Modulators in Drosophila S3 Cells.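 For cell number change: cells counted by Cell Tracker Red CMTPX staining in the red channel.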 Particulars: BODIPY lipid droplet fluorescence, 18-24 h; for cell number change: measured here: cell count max response, cells fed with added oleic acid. An outline of the steps:
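Drosophila S3 cells got compounds at several concentrations plus oleic acid (400 uM solution). Laser-scanning cytometry with 488 nm excitation read lipid droplets at 500-530 nm and cells at 575-640 nm. Percent activity was relative to 20 uM Triacsin C.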
(In general: Quantitative high-throughput screening tests each substance at several concentrations.)

Where [1] appears, read: measured here: lipid fluorescence (Fed channel) AC50, cells fed with added oleic acid.
Where [2] appears, read: measured here: cell number channel AC50, cells fed with added oleic acid.

Regarding `COc1ccccc1NC1=C(Cl)C(=O)N(C2CCCCC2)C1=O`, the cell number change was found to be 4.14%.
As for `CC(C)[C@@H](C(=O)N[C@@H](C(=O)O)c1ccccc1)N1C(=O)N2CCc3c([nH]c4ccccc34)[C@@]2(C)C1=O`, the cell number change is 11.6%. In addition, the AC50 under setting [1] is 10.3 µM [rising, partial curve, poor fit].
`N#CC1=C2N=C(N)c3ccccc3N2C2=C(C(=O)CCC2)C1c1ccc(F)cc1` (centres undefined): the cell number change stood at 17.5%. Also, under setting [2], the AC50 is 0.00517 µM [rising, full curve, poor fit].
On to `Cc1cc(C)n(-c2nc(NCCCN(C)C)c3c4c(sc3n2)CCCC4)n1`, for which the cell number change came to 3.86%.
`CCCC(=O)Nc1ccc2c(c1)Cc1ccccc1-2`: the cell number change is -15.9%. Moreover, the AC50 under setting [1] is 23.1 µM [rising, single point].
Regarding `S=C(Nc1ccccc1Cl)N(Cc1ccccc1)Cc1ccccn1`, the cell number change was -3.64%. In addition, the AC50 under setting [1] was 2.31 µM [falling, single point].
`CCC(C)(C)c1ccc(Oc2cccc(C(=O)O)c2)cc1`: the cell number change was -7.44%. For the same compound, the AC50 under setting [1] was 3.66 µM [falling, single point].
On to `CC(=O)Oc1ccc(C(=O)Nc2cccc(C(=O)c3cccc(NC(=O)c4ccc(OC(C)=O)cc4)c3)c2)cc1`, for which the cell number change came to 94.1%. The AC50 under setting [2] is 29.1 µM [rising, single point]. For the same compound, under setting [1], the half-maximal activity concentration (AC50) was 20.6 µM [rising, partial curve].
Turning to `COc1ccc(C2(c3ccc(OC)cc3)NC(=O)N(CC(=O)NC(C)C)C2=O)cc1`, the cell number change was determined as 11.4%.
In the case of `OCCNc1nc2ccccc2n1CC(O)c1ccccc1` (centres undefined), the cell number change came out at 14.3%. Further, the AC50 under setting [2] is 1.3 µM [rising, full curve].
Regarding `O=C(NCc1ccc(F)c(F)c1)C1CCC(=O)N(CCc2ccccc2)C1` (centres undefined), the cell number change was 28.5%. Moreover, under setting [1], the AC50 was 29.1 µM [rising, single point].
Consider `O=C(NCC1CCCO1)c1cnn2c1NC(c1ccccc1)CC2C(F)(F)F` (centres undefined), for which the cell number change is 12.4%. Further, under setting [1], the AC50 is 3.66 µM [rising, partial curve, poor fit].
Turning to `O=C(c1n[nH]c2ccccc12)N1CCN(S(=O)(=O)c2ccc(Cl)cc2)CC1`, the cell number change was 2.6%. For the same compound, under setting [2], the AC50 was 6.51 µM [falling, single point]. Besides, the AC50 under setting [1] is 6.51 µM [falling, single point].
Consider `CC(C)C1NC2(C(=O)c3ccccc3C2=O)C2C(=O)N(c3ccc(F)cc3)C(=O)C12` (centres undefined), for which the cell number change was -32.8%. For the same compound, the AC50 under setting [1] was 29.1 µM [falling, single point].
For `CCCCN(C(=O)CCC(=O)Nc1cc(C)on1)C(C(=O)NC1CCCC1)c1ccccc1OCC` (centres undefined), the cell number change is -2.63%. Under setting [2], the AC50 is 0.58 µM [falling, full curve, poor fit].
Regarding `CN(C)S(=O)(=O)c1ccc(Cl)c(C(=O)OCC(=O)NC(=O)NC2CCCC2)c1`, the cell number change is -11.3%.
For `Cc1ccc(S(=O)(=O)NCCCCCC(=O)Nc2nccs2)cc1`, the cell number change was -7.34%. Also, under setting [1], the AC50 is 0.146 µM [rising, partial curve, poor fit].
Regarding `COc1ccc(NC(=O)COC(=O)c2c(C)noc2C)c(OC)c1`, the cell number change was found to be 85.2%. The AC50 under setting [2] was 8.2 µM [rising, partial curve]. Moreover, the AC50 under setting [1] is 4.61 µM [rising, single point].
In the case of `Cc1cc(C)c(OCC(=O)Nc2ccc(NC(=O)c3ccco3)cc2)c([N+](=O)[O-])c1`, the cell number change was -2.48%.
Regarding `Cc1ccc(C(=O)CCC2CCCC2=O)cc1` (centres undefined), the cell number change was 18.3%.
Take `Cc1ccc(NC(=O)C2CC(Cl)=CCC2C(=O)O)c([N+](=O)[O-])c1` (centres undefined): the cell number change turned out to be 0.249%.
As to `CCOc1ccc(NC(=O)CC)cc1`, the cell number change was -9.24%. The concentration at half-maximal activity (AC50) under setting [2] was 0.651 µM [rising, partial curve, poor fit].
Regarding `CN(C)S(=O)(=O)c1cccc(C(=O)NC2CCSc3ccccc32)c1` (centres undefined), the cell number change was -5.95%. The AC50 under setting [1] is 0.411 µM [rising, single point].
Consider `Cc1ccc(CN(C)C(=O)C2CCCN2C(=O)c2cccs2)o1` (centres undefined), for which the cell number change amounted to 5.17%. The AC50 under setting [1] is 0.0517 µM [falling, full curve].
For the compound `S=C(Nc1ccc(Oc2ccccc2)cc1)N1CCOCC1`, the cell number change was found to be 33.3%. Also, the AC50 under setting [2] was 1.03 µM [rising, full curve, poor fit].
On to `CNC(=S)N1CCC(NC(=O)c2ccco2)CC1`, for which the cell number change is -9.77%. Moreover, the AC50 under setting [1] was 29.1 µM [falling, single point].
`Cc1ccc(S(=O)(=O)N2[C@@H](c3ccccc3F)C(C(=O)O)=CC[C@H]2c2ccc(Cl)c(Cl)c2)cc1`: the cell number change is -48%. Also, the AC50 under setting [2] was 20.6 µM [falling, single point].
Regarding `COc1ccc(OCC(=O)OCCN(C)C)cc1`, the cell number change was -34.5%. Besides, the AC50 under setting [2] is 0.00517 µM [falling, full curve, poor fit].
With `Cc1occc1-c1nnc(SCC(=O)N2CC(=O)Nc3ccccc32)n1CC(C)C`, the cell number change was found to be 7.8%.
In the case of `FC(F)(F)c1cnc(C(c2ccccc2)c2ncn[nH]2)c(Cl)c1` (centres undefined), the cell number change was -19.1%. For the same compound, the AC50 under setting [2] was 0.13 µM [falling, full curve, poor fit]. The AC50 under setting [1] is 0.13 µM [falling, full curve, poor fit].
As to `Fc1ccc(-c2cnn3c(-c4cccs4)ccnc23)cc1`, the cell number change was -24.4%. The AC50 under setting [2] is 0.164 µM [rising, full curve, poor fit].
Turning to `CC1CN(C(=O)COC(=O)c2cc(S(N)(=O)=O)c(Cl)cc2Cl)CC(C)O1` (centres undefined), the cell number change is 27.8%.
In the case of `COc1ccc(OCc2nnc(SCC(=O)N(C)Cc3ccccc3)n2N)cc1`, the cell number change was determined as 16.6%. In addition, the concentration at half-maximal activity (AC50) under setting [1] was 29.1 µM [falling, single point].
In the case of `CCc1ccc(CNC(=O)CCc2cn(C)c3ccccc23)cc1`, the cell number change was 2.84%. For the same compound, the AC50 under setting [2] is 4.11 µM [rising, single point]. In addition, under setting [1], the AC50 is 0.103 µM [rising, full curve, poor fit].
Take `CCO/N=C/c1ccc(OC)c(Oc2nc(OC)cc(OC)n2)c1`: the cell number change is 22.8%. The AC50 under setting [1] is 7.31 µM [rising, partial curve].
As for `COCCN(Cc1cc2ccc(C)cc2[nH]c1=O)S(=O)(=O)c1ccccc1`, the cell number change is -23.7%. Moreover, under setting [2], the AC50 was 0.092 µM [falling, full curve, poor fit].
With `COCC(=O)Nc1cc([N+](=O)[O-])ccc1OC`, the cell number change came to 11.6%. Moreover, the half-maximal activity concentration (AC50) under setting [1] was 6.51 µM [rising, partial curve, poor fit].
For the compound `CC1CC2(CCCC2)N(C(=O)N(C)C)c2ccc(F)cc21` (centres undefined), the cell number change turned out to be 14.1%. Besides, the AC50 under setting [1] is 4.11 µM [rising, single point].
On to `CCN1CCN(C(=O)c2cc3c(s2)-c2c(C)cccc2OC3)CC1`, for which the cell number change worked out at 14.7%. For the same compound, the AC50 under setting [1] was 4.11 µM [falling, single point].
For `Cc1ccc(Cc2nnc(SCC(=O)Nc3c(C)cccc3C)[nH]c2=O)cc1`, the AC50 under setting [1] is 29.1 µM [rising, single point].
On to `NS(=O)(=O)c1ccc(NC(=S)N2CCN(Cc3ccc(Cl)c(Cl)c3)CC2)cc1`, for which the cell number change is -13.3%. Besides, the AC50 under setting [1] was 32.6 µM [falling, partial curve, poor fit].
As for `O=C(NCc1cccnc1)c1ccc(S(=O)(=O)N2CCCCCC2)cc1`, the cell number change is 65.8%. For the same compound, under setting [2], the AC50 is 29.1 µM [rising, single point].
Take `Cc1cccc(NC(=O)COc2cccc3c2CCN(C)C3=O)c1`: the cell number change is -22%. Under setting [1], the AC50 is 0.82 µM [rising, full curve].
Regarding `COc1c(Br)cc(Br)cc1/C=N/n1c(C)nnc1C`, the cell number change was 22.7%. Further, under setting [2], the AC50 was 0.82 µM [rising, full curve, poor fit].
As to `CCOC(=O)C(=Nc1ccc(Cl)cc1)NO`, the cell number change was 3%. Moreover, the AC50 under setting [1] is 1.3 µM [falling, full curve].
As to `N#CCC(=O)Nc1ccc(C(=O)OCC(=O)Nc2ccccc2Sc2ccccc2)cc1`, the cell number change was determined as 65%. Besides, the AC50 under setting [2] is 29.1 µM [rising, single point]. Besides, the AC50 under setting [1] is 0.00461 µM [rising, full curve, poor fit].
Take `CC(C(=O)Nc1ccc2c(c1)OCO2)N1CCC(N2CCCCC2)CC1` (centres undefined): the cell number change is 17.9%. The AC50 under setting [1] is 4.11 µM [rising, full curve].
For the compound `CC(=O)Nc1c(I)c(C(=O)N[C@H]2C(O)O[C@H](CO)[C@@H](O)[C@@H]2O)c(I)c(N(C)C(C)=O)c1I` (some centres undefined), the AC50 under setting [1] was 18.4 µM [rising, single point].
With `Cc1ccccc1C1=NC(C(F)(F)F)(C(F)(F)F)c2c(n(C)c(=O)n(C)c2=O)N1`, the cell number change came out at 20.5%. Under setting [1], the AC50 is 3.66 µM [rising, full curve].
With `CCCn1c(=N)n(CC(=O)c2ccc(Cl)c(Cl)c2)c2ccccc21`, the cell number change was 16.7%. Further, the AC50 under setting [1] is 10.3 µM [falling, partial curve].
In the case of `COc1ccc(CCCc2nnc(SCC(=O)NN)o2)c(C)c1`, the cell number change worked out at 18.7%. Under setting [1], the AC50 is 4.11 µM [rising, full curve].
In the case of `Cc1ccc(C)c(NC2=NS(=O)(=O)c3ccccc32)c1`, the cell number change was 3.24%.
Take `COCCn1c(C)cc(C(=O)COC(=O)c2ccc[nH]c2=O)c1C`: the cell number change is -5.34%.
`Cc1[nH][nH]c(=O)c1C(c1c(C)[nH][nH]c1=O)c1cn(Cc2ccccc2Cl)c2ccccc12`: the cell number change was determined as 1.85%. Also, the AC50 under setting [1] was 0.206 µM [rising, full curve, poor fit].
Take `c1ccc(OCCOc2ncnc3sccc23)cc1`: under setting [1], the AC50 is 0.103 µM [falling, full curve, poor fit].
For the compound `CN(C)S(=O)(=O)Oc1cccc(C(=O)Nc2ccc(Cl)cc2)c1`, the cell number change was 15.9%. In addition, the AC50 under setting [1] is 11.6 µM [falling, single point].
In the case of `CN(CC(=O)NC1CCCc2ccccc21)S(=O)(=O)c1ccc2c(c1)c(=O)n(C)c(=O)n2C` (centres undefined), the AC50 is, setting by setting: under setting [2], 6.51 µM [rising, single point]; under setting [1], 6.51 µM [rising, single point].
Consider `N#Cc1ccccc1NC(=O)CC1CCCCC1`, for which the cell number change came to 30.5%.
On to `COc1cc(C(=O)NC(=S)Nc2ccc3oc(=O)ccc3c2)cc(OC)c1OC`, for which the cell number change is -16%.
Turning to `COc1ccc(/C=C2\SC(=S)N(C(C)C(=O)NC3C=CS(=O)(=O)C3)C2=O)cc1` (centres undefined), the cell number change turned out to be 1.91%. In addition, under setting [1], the AC50 was 29.1 µM [rising, single point].
In the case of `O=C(CCS(=O)(=O)c1ccccc1)N(CCCN1CCOCC1)c1nc2ccccc2s1`, the cell number change is -45.4%. Also, the AC50 under setting [2] is 20.6 µM [falling, partial curve, poor fit].
`COc1cccc(NC(=O)CN(C)C(=O)c2ccc(NS(=O)(=O)c3ccc(F)cc3)cc2)c1`: the cell number change was -3.61%. The AC50 under setting [1] is 0.103 µM [falling, full curve, poor fit].
